Assay results as given in patent US20160362463A1 (CHINA MEDICAL UNIVERSITY, published 2016).

Biological target: T1, FLAG-Elk-1 (amino acids 1-428) (human, UniProt P19419 1-428)
T1 construct: range 1-428; Full-length Elk-1 expressed in HEK-293 cells; not shown: FLAG tag
T1 sequence (looked up): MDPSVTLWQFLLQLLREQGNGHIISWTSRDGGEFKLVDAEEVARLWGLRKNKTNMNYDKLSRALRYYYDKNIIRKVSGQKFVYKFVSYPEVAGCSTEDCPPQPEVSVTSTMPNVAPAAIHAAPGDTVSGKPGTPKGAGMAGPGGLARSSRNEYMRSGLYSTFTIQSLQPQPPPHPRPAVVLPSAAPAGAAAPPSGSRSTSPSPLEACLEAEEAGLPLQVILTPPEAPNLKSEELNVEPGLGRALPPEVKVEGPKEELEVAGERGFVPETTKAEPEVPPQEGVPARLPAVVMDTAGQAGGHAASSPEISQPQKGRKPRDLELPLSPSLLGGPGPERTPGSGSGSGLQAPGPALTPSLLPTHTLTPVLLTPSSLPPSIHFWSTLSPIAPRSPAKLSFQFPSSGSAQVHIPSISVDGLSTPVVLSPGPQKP
Assay: co-immunoprecipitation (anti-c-Myc IP, anti-FLAG blot), HEK-293 cells

B1: MZF-1-c-Myc fragment, amino acids 73-485 (other, human, UniProt P28698-2 73-485, looked up)
chain: PCRGVGPALITTRWRSPRGRSRGRPSTGGGVVRGGRCDVCGKVFSQRSNLLRHQKIHTGERPFVCSECGRSFSRSSHLLRHQLTHTEERPFVCGDCGQGFVRSARLEEHRRVHTGEQPFRCAECGQSFRQRSNLLQHQRIHGDPPGPGAKPPAPPGAPEPPGPFPCSECRESFARRAVLLEHQAVHTGDKSFGCVECGERFGRRSVLLQHRRVHSGERPFACAECGQSFRQRSNLTQHRRIHTGERPFACAECGKAFRQRPTLTQHLRVHTGEKPFACPECGQRFSQRLKLTRHQRTHTGEKPYHCGECGLGFTQVSRLTEHQRIHTGERPFACPECGQSFRQHANLTQHRRIHTGERPYACPECGKAFRQRPTLTQHLRTHRREKPFACQDCGRRFHQSTKLIQHQRVHSAE
notes: range 73-485; Expressed in HEK-293 cells; also called MZF-173-485; not shown: c-Myc(-His) tag from the pcDNA3.1/myc-His vector
Question: Does B1 bind?
Answer: no binding
